Source: the supplement of paper PMC12823440, “Inhibitors supercharge kinase turnover through native proteolytic circuits” (Nature, 2025)
Counter-ions that a name gives are not always drawn. This is one part of the list. The calls rarely recur for the same compound in another form.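 Kinases were expressed as nanoluciferase fusions in K562 cells and luminescence was read every 4 h between 2 and 18 h as percent of control, DMSO set to 100% and a positive control to 0%. A time point counts as decreased when the signal drops significantly (2 sigma). The hit call is the authors' own, does not follow from the count of time points alone, and its rule is not shown.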

Amino acid sequences for entries named in this document (tags omitted). A change or cut given only in a name is not applied to a line headed by its entry.
UniProt Q9BRS2: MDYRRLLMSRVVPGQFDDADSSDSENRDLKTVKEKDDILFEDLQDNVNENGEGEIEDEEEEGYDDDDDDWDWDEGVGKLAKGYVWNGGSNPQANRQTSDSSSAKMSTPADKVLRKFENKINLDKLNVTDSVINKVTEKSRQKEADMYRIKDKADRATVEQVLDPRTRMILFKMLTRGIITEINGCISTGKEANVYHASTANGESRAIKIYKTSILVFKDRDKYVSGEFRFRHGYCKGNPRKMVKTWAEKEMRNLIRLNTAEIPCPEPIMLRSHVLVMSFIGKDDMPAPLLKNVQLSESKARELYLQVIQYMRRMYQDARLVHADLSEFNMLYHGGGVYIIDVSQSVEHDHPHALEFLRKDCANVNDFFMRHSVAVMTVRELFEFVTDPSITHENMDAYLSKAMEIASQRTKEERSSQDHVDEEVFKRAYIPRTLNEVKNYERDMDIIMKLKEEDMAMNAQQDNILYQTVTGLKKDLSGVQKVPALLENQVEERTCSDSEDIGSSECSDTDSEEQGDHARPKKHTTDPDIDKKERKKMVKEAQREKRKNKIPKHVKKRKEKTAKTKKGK
UniProt Q13546: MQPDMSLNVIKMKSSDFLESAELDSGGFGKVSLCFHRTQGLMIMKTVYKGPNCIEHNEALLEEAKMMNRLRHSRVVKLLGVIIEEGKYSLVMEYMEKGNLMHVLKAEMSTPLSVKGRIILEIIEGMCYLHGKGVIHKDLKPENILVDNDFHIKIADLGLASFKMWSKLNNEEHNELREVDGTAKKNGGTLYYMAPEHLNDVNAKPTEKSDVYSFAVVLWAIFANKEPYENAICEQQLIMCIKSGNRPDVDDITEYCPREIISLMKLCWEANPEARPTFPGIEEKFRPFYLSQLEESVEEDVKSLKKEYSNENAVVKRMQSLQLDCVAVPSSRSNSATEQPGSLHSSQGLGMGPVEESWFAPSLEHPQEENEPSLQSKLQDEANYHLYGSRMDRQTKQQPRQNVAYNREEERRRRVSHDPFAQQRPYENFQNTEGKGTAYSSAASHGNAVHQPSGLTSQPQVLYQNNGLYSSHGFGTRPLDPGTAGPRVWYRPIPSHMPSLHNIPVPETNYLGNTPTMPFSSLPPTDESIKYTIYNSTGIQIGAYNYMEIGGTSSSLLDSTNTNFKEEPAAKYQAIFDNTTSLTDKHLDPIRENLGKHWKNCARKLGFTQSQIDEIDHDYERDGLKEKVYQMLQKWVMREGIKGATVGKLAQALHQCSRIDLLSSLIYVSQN
UniProt Q15418, whole entry: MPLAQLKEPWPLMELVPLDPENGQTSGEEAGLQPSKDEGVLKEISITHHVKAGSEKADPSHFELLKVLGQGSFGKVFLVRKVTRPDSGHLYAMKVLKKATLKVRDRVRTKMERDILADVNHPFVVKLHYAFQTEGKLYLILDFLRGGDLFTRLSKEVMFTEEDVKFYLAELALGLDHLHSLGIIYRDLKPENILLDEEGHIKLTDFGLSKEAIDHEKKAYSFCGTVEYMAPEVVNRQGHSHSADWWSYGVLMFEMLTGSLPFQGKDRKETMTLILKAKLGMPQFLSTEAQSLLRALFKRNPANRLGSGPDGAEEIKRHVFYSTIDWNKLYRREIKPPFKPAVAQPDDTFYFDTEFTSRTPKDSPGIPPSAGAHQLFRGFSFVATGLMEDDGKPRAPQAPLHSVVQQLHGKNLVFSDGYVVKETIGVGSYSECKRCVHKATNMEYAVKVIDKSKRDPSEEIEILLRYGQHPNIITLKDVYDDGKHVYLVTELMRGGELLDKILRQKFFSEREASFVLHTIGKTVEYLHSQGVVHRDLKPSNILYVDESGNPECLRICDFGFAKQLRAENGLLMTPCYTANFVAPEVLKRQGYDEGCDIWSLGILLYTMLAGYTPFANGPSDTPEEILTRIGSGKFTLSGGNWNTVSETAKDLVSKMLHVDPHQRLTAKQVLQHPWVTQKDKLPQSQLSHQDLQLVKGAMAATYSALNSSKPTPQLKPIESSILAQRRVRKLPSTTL
UniProt Q9Y6E0: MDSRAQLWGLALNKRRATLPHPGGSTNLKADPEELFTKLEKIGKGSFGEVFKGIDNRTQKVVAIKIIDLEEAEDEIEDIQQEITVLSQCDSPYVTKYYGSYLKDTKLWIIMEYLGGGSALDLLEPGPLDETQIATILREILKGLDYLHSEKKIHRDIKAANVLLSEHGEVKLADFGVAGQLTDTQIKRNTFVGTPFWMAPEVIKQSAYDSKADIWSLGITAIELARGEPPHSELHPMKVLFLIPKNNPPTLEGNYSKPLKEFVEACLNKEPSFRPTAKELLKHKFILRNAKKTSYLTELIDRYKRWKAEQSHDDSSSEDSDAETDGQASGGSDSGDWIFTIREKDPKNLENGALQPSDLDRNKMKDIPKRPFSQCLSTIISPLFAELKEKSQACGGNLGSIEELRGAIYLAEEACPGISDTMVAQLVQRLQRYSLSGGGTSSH
UniProt Q15208: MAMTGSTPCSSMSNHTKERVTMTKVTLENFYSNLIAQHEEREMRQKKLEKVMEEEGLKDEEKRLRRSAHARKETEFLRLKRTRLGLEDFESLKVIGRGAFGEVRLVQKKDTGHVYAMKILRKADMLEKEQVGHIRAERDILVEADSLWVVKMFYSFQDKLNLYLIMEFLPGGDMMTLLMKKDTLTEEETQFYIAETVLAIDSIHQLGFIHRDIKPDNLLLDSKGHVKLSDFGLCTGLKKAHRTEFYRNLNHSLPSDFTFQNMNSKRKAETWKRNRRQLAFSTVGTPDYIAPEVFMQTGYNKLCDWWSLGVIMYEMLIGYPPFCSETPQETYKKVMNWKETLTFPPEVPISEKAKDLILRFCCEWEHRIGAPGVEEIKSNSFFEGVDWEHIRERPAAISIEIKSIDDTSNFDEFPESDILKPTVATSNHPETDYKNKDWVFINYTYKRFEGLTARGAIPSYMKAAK
UniProt P29597: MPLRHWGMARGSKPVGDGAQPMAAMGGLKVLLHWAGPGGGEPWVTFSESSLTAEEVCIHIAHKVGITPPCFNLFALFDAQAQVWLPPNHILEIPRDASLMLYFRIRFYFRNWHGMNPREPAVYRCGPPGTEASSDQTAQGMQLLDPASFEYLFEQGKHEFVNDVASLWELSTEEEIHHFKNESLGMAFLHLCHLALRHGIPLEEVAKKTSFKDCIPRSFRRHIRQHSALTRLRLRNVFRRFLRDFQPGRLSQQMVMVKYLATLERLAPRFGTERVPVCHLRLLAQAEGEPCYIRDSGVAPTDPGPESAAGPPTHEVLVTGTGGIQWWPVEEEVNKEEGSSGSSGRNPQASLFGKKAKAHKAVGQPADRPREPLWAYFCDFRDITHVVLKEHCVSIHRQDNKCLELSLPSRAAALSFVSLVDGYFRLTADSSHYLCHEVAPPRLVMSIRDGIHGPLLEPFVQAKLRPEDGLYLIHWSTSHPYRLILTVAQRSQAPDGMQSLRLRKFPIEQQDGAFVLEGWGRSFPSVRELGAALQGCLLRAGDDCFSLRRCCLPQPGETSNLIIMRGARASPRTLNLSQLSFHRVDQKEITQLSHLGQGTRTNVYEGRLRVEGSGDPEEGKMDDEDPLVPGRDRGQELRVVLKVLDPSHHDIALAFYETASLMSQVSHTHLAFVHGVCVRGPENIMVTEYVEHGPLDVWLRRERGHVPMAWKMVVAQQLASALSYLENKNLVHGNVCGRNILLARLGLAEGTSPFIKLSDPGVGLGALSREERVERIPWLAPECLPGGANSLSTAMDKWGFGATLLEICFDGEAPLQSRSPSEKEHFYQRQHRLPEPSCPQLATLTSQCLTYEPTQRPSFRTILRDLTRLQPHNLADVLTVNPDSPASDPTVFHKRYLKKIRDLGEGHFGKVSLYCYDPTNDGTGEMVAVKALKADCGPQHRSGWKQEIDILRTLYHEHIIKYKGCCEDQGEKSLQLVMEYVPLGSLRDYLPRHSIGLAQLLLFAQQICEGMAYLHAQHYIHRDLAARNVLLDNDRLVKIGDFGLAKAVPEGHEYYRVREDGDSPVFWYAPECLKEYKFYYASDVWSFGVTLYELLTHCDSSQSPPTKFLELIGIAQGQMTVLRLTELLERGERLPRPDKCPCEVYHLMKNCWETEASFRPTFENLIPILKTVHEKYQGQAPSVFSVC
UniProt Q6PHR2: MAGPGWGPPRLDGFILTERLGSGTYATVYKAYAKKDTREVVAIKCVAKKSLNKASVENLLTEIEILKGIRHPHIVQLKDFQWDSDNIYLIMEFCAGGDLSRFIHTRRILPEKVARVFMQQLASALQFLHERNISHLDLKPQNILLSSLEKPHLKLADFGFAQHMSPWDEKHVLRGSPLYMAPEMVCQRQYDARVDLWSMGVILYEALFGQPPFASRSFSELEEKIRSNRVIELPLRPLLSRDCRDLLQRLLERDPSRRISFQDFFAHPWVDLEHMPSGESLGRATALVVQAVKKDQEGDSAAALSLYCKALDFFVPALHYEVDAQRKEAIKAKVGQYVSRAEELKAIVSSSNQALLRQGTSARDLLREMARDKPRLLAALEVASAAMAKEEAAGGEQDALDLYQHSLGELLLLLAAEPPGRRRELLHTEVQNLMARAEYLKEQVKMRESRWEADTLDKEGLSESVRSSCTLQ
UniProt P07947, whole entry, looked up: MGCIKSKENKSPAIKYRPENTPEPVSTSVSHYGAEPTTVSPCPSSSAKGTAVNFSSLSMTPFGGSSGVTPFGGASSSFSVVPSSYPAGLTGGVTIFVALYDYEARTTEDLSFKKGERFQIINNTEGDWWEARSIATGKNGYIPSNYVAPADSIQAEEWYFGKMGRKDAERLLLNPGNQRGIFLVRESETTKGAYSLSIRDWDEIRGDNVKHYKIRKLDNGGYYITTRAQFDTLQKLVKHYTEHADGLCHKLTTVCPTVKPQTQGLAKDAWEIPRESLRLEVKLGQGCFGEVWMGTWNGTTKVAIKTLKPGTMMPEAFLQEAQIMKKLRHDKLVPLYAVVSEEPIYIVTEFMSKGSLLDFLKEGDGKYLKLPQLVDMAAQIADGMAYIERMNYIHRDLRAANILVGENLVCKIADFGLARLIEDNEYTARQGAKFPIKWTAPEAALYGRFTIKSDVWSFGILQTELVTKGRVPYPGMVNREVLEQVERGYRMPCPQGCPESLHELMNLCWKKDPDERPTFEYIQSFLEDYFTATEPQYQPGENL
UniProt P43403: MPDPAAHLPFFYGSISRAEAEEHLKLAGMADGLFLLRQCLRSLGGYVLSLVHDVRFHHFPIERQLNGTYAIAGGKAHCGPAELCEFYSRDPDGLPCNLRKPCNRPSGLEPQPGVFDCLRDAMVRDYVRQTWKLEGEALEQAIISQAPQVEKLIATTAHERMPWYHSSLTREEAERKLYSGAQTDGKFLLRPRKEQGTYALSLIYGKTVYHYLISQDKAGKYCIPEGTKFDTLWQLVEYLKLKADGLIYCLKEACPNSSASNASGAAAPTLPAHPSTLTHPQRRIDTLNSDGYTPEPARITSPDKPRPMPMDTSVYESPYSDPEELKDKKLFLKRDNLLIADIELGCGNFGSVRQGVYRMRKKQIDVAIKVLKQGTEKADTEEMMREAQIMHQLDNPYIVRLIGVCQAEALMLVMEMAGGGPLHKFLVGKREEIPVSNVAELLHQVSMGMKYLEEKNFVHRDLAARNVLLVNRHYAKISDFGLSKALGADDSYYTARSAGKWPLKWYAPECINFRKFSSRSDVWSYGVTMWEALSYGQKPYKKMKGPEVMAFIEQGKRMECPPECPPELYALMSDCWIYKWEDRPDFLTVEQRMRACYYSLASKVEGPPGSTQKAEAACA
UniProt P11802: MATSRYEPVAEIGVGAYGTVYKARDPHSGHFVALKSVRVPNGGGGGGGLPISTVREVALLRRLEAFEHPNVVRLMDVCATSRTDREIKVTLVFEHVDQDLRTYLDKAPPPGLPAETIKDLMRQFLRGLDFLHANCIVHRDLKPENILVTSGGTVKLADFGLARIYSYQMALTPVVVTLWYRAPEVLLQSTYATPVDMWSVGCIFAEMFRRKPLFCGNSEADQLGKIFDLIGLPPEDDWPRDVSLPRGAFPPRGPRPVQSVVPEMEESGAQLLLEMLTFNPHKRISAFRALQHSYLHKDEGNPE
UniProt P50613: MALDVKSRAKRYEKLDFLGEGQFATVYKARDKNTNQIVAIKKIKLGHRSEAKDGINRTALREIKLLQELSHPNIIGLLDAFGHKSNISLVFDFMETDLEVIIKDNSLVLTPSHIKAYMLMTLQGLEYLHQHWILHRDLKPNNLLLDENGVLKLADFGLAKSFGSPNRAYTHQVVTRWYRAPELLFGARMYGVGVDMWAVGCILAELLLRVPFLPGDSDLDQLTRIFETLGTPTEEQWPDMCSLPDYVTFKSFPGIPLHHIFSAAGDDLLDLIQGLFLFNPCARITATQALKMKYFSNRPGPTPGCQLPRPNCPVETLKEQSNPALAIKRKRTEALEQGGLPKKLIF

Experiments:
Settings in all cases: K562, 2-18 h
RET = RET (UniProt P07949); test: kinase-Nluc reporter destabilization hit call (1 = scored as downregulated) (binary); higher = compound decreases kinase abundance
[1] = target: RET_M918T (clone: RET_mut) (UniProt P07949); test: as above
RIOK1 = RIOK1 (UniProt Q9BRS2); test: as above
RIPK1 = RIPK1 (UniProt Q13546); test: as above
RIPK2 = RIPK2 (UniProt O43353); test: as above
ROR2 = ROR2 (UniProt Q01974); test: as above
RPS6KA1 = RPS6KA1 (UniProt Q15418); test: as above
SPHK1 = SPHK1 (UniProt Q9NYA1); test: as above
SRC = SRC (UniProt P12931); test: as above
STK24 = STK24 (UniProt Q9Y6E0); test: as above
STK38 = STK38 (UniProt Q15208); test: as above
SYK = SYK (UniProt P43405); test: as above
TEC = TEC (UniProt P42680); test: as above
TYK2 = TYK2 (UniProt P29597); test: as above
ULK3 = ULK3 (UniProt Q6PHR2); test: as above
YES1 = YES1 (UniProt P07947); test: as above
ZAK = ZAK (UniProt Q9NYL2); test: as above
ZAP70 = ZAP70 (UniProt P43403); test: as above
CDK4 = CDK4 (UniProt P11802); test: number of time points (of 4; 2 h point missing) at which kinase-Nluc abundance scored as decreased, DMSO-normalised (count); higher = more persistent destabilization
CDK7 = CDK7 (UniProt P50613); test: as above

## C[C@H](Nc1cc(-c2cnn(C)c2)cc(Nc2cnccn2)n1)c1ccc(F)cc1 [Ilginatinib hydrochloride]
RET; 2.5 µM
  kinase-Nluc reporter destabilization hit call: inactive: 0
[1]; 2.5 µM
  kinase-Nluc reporter destabilization hit call: inactive: 0
RIOK1; 2.5 µM
  kinase-Nluc reporter destabilization hit call: inactive: 0
RIPK1; 2.5 µM
  kinase-Nluc reporter destabilization hit call: inactive: 0
RIPK2; 2.5 µM
  kinase-Nluc reporter destabilization hit call: inactive: 0
ROR2; 2.5 µM
  kinase-Nluc reporter destabilization hit call: inactive: 0
RPS6KA1; 2.5 µM
  kinase-Nluc reporter destabilization hit call: inactive: 0
SPHK1; 2.5 µM
  kinase-Nluc reporter destabilization hit call: inactive: 0
SRC; 2.5 µM
  kinase-Nluc reporter destabilization hit call: inactive: 0
STK24; 2.5 µM
  kinase-Nluc reporter destabilization hit call: inactive: 0
STK38; 2.5 µM
  kinase-Nluc reporter destabilization hit call: inactive: 0
SYK; 2.5 µM
  kinase-Nluc reporter destabilization hit call: inactive: 0
TEC; 2.5 µM
  kinase-Nluc reporter destabilization hit call: inactive: 0
TYK2; 2.5 µM
  kinase-Nluc reporter destabilization hit call: inactive: 0
ULK3; 2.5 µM
  kinase-Nluc reporter destabilization hit call: inactive: 0
YES1; 2.5 µM
  kinase-Nluc reporter destabilization hit call: inactive: 0
ZAK; 2.5 µM
  kinase-Nluc reporter destabilization hit call: inactive: 0
ZAP70; 2.5 µM
  kinase-Nluc reporter destabilization hit call: inactive: 0
CDK4; 2.5 µM
  number of time points: 0
CDK7; 2.5 µM
  number of time points: 4

## CNc1ncc2cc(-c3ccc(-c4cccc(C)n4)cc3Cl)c(=O)n(C[C@H]3OC[C@H](N)CO3)c2n1 [G-5555 (hydrochloride)]
RET; 10 µM
  kinase-Nluc reporter destabilization hit call: inactive: 0
[1]; 10 µM
  kinase-Nluc reporter destabilization hit call: inactive: 0
RIOK1; 10 µM
  kinase-Nluc reporter destabilization hit call: inactive: 0
RIPK1; 10 µM
  kinase-Nluc reporter destabilization hit call: inactive: 0
RIPK2; 10 µM
  kinase-Nluc reporter destabilization hit call: inactive: 0
ROR2; 10 µM
  kinase-Nluc reporter destabilization hit call: inactive: 0
RPS6KA1; 10 µM
  kinase-Nluc reporter destabilization hit call: inactive: 0
SPHK1; 10 µM
  kinase-Nluc reporter destabilization hit call: inactive: 0
SRC; 10 µM
  kinase-Nluc reporter destabilization hit call: inactive: 0
STK24; 10 µM
  kinase-Nluc reporter destabilization hit call: inactive: 0
STK38; 10 µM
  kinase-Nluc reporter destabilization hit call: inactive: 0
SYK; 10 µM
  kinase-Nluc reporter destabilization hit call: inactive: 0
TEC; 10 µM
  kinase-Nluc reporter destabilization hit call: inactive: 0
TYK2; 10 µM
  kinase-Nluc reporter destabilization hit call: inactive: 0
ULK3; 10 µM
  kinase-Nluc reporter destabilization hit call: inactive: 0
YES1; 10 µM
  kinase-Nluc reporter destabilization hit call: inactive: 0
ZAK; 10 µM
  kinase-Nluc reporter destabilization hit call: inactive: 0
ZAP70; 10 µM
  kinase-Nluc reporter destabilization hit call: inactive: 0
CDK4; 10 µM
  number of time points: 0
CDK7; 10 µM
  number of time points: 1

## Cn1cc(-c2cnc3ccc4ccc(CS(=O)(=O)NCc5ccccn5)cc4c(=O)c3c2)cn1
RET; 10 µM
  kinase-Nluc reporter destabilization hit call: inactive: 0
[1]; 10 µM
  kinase-Nluc reporter destabilization hit call: inactive: 0
RIOK1; 10 µM
  kinase-Nluc reporter destabilization hit call: inactive: 0
RIPK1; 10 µM
  kinase-Nluc reporter destabilization hit call: inactive: 0
RIPK2; 10 µM
  kinase-Nluc reporter destabilization hit call: inactive: 0
ROR2; 10 µM
  kinase-Nluc reporter destabilization hit call: inactive: 0
RPS6KA1; 10 µM
  kinase-Nluc reporter destabilization hit call: inactive: 0
SPHK1; 10 µM
  kinase-Nluc reporter destabilization hit call: inactive: 0
SRC; 10 µM
  kinase-Nluc reporter destabilization hit call: inactive: 0
STK24; 10 µM
  kinase-Nluc reporter destabilization hit call: inactive: 0
STK38; 10 µM
  kinase-Nluc reporter destabilization hit call: inactive: 0
SYK; 10 µM
  kinase-Nluc reporter destabilization hit call: inactive: 0
TEC; 10 µM
  kinase-Nluc reporter destabilization hit call: inactive: 0
TYK2; 10 µM
  kinase-Nluc reporter destabilization hit call: inactive: 0
ULK3; 10 µM
  kinase-Nluc reporter destabilization hit call: inactive: 0
YES1; 10 µM
  kinase-Nluc reporter destabilization hit call: inactive: 0
ZAK; 10 µM
  kinase-Nluc reporter destabilization hit call: inactive: 0
ZAP70; 10 µM
  kinase-Nluc reporter destabilization hit call: inactive: 0
CDK4; 10 µM
  number of time points: 0
CDK7; 10 µM
  number of time points: 0

## C=CC(=O)Nc1cc2c(Nc3ccc(F)c(Cl)c3)ncnc2cc1C#CC(C)(C)N1CCN(C)CC1
RET; 2.5 µM
  kinase-Nluc reporter destabilization hit call: inactive: 0
[1]; 2.5 µM
  kinase-Nluc reporter destabilization hit call: inactive: 0
RIOK1; 2.5 µM
  kinase-Nluc reporter destabilization hit call: inactive: 0
RIPK1; 2.5 µM
  kinase-Nluc reporter destabilization hit call: inactive: 0
RIPK2; 2.5 µM
  kinase-Nluc reporter destabilization hit call: inactive: 0
ROR2; 2.5 µM
  kinase-Nluc reporter destabilization hit call: inactive: 0
RPS6KA1; 2.5 µM
  kinase-Nluc reporter destabilization hit call: inactive: 0
SPHK1; 2.5 µM
  kinase-Nluc reporter destabilization hit call: inactive: 0
SRC; 2.5 µM
  kinase-Nluc reporter destabilization hit call: inactive: 0
STK24; 2.5 µM
  kinase-Nluc reporter destabilization hit call: inactive: 0
STK38; 2.5 µM
  kinase-Nluc reporter destabilization hit call: inactive: 0
SYK; 2.5 µM
  kinase-Nluc reporter destabilization hit call: inactive: 0
TEC; 2.5 µM
  kinase-Nluc reporter destabilization hit call: inactive: 0
TYK2; 2.5 µM
  kinase-Nluc reporter destabilization hit call: inactive: 0
ULK3; 2.5 µM
  kinase-Nluc reporter destabilization hit call: inactive: 0
YES1; 2.5 µM
  kinase-Nluc reporter destabilization hit call: inactive: 0
ZAK; 2.5 µM
  kinase-Nluc reporter destabilization hit call: inactive: 0
ZAP70; 2.5 µM
  kinase-Nluc reporter destabilization hit call: inactive: 0
CDK4; 2.5 µM
  number of time points: 0
CDK7; 2.5 µM
  number of time points: 0

## CNC(=O)c1ccc(Nc2ncc(C(F)(F)F)c(NCc3nccnc3N(C)S(C)(=O)=O)n2)cc1 [Defactinib]
RET; 10 µM
  kinase-Nluc reporter destabilization hit call: inactive: 0
[1]; 10 µM
  kinase-Nluc reporter destabilization hit call: inactive: 0
RIOK1; 10 µM
  kinase-Nluc reporter destabilization hit call: inactive: 0
RIPK1; 10 µM
  kinase-Nluc reporter destabilization hit call: inactive: 0
RIPK2; 10 µM
  kinase-Nluc reporter destabilization hit call: inactive: 0
ROR2; 10 µM
  kinase-Nluc reporter destabilization hit call: inactive: 0
RPS6KA1; 10 µM
  kinase-Nluc reporter destabilization hit call: inactive: 0
SPHK1; 10 µM
  kinase-Nluc reporter destabilization hit call: inactive: 0
SRC; 10 µM
  kinase-Nluc reporter destabilization hit call: inactive: 0
STK24; 10 µM
  kinase-Nluc reporter destabilization hit call: inactive: 0
STK38; 10 µM
  kinase-Nluc reporter destabilization hit call: inactive: 0
SYK; 10 µM
  kinase-Nluc reporter destabilization hit call: inactive: 0
TEC; 10 µM
  kinase-Nluc reporter destabilization hit call: inactive: 0
TYK2; 10 µM
  kinase-Nluc reporter destabilization hit call: inactive: 0
ULK3; 10 µM
  kinase-Nluc reporter destabilization hit call: inactive: 0
YES1; 10 µM
  kinase-Nluc reporter destabilization hit call: inactive: 0
ZAK; 10 µM
  kinase-Nluc reporter destabilization hit call: inactive: 0
ZAP70; 10 µM
  kinase-Nluc reporter destabilization hit call: inactive: 0
CDK4; 10 µM
  number of time points: 0
CDK7; 10 µM
  number of time points: 0
